From patent US20230295088A1, “INSULIN SENSITIZERS FOR THE TREATMENT OF DIABETES MELLITUS” (University of Iowa Research Foundation, priority 2020, published 2023)
At least one compound was matched to its structure with a doubt left.

System: diet-induced obese (DIO) mice
Test: Glucose tolerance, fasting glucose and insulin in diet-induced obese (DIO) insulin-resistant mice
Format: in vivo, mouse
Experimental: To test whether C3 improves glucose handling, WT mice were made insulin-resistant by feeding them a high fat diet (HFD) for a period of 10 weeks. After 10 weeks, mice were injected with vehicle. C3 (20 mg/kg), or the TZD rosiglitazone (20 mg/kg) for 2 weeks while remaining on the HFD. […] To further test the in vivo efficacy of C3, a glucose tolerance test (GTT) was perfromed.
To test whether C3 improves glucose handling, lean mice were injected with vehicle or C3 30 minutes before performing a glucose tolerance test. […] To further determine if C3 can reverse glucose intolerance, WT mice were made insulin-resistant by feeding them a high fat diet (HFD) for a period of 10 weeks. Diet induced obese (DIO) mice were then injected with vehicle or C3 for 2 weeks while remaining on HFD.

[1] = DIO mice, 2 weeks treatment (20 mg/kg)

SMILES: CN(CCOc1ccc(CC2SC(=O)NC2=O)cc1)c1ccccn1 (stereo not shown) [rosiglitazone, reference compound]
- glucose handling in glucose tolerance test (DIO mice (HFD 10 weeks), injected for 2 weeks (20 mg/kg)): rapidly cleared glucose
- insulin response to the glucose challenge (DIO mice, 20 mg/kg for 2 weeks, GTT): normal insulin response
- fasting blood glucose [1]: significantly decrease
- fasting plasma insulin [1]: significantly decrease
